± gives the standard deviation of the averaged measurements. The list shows a part of the results.
Target: ATP1B3 (UniProt P54709)
Assay: NP40-soluble protein abundance relative to vehicle (solubility fold change) (ratio); higher = more soluble protein in presence of GTP
Protocol: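 Solubility proteome profiling in Jurkat crude lysate. Lysate was treated with Mg-GTP (0.1-10 mM) for 10 min at room temperature and 3 min at 37 °C, then solubilised with 0.8% NP40 and benzonase, followed by ultracentrifugation. Proteins were quantified by TMT10 LC-MS/MS; the value is the NP40-soluble abundance relative to the NP40-processed vehicle, from 3 independent experiments.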

Amino acid sequences for entries named in this document (tags omitted).
UniProt P54709, whole entry: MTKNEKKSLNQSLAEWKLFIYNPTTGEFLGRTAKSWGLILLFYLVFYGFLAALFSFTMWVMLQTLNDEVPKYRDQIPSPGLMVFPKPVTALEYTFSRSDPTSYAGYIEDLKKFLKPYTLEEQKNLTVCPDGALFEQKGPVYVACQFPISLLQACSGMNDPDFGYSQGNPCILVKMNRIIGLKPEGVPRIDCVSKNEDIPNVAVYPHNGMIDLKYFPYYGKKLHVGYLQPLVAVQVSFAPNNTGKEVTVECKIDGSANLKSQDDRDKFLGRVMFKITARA

In the case of `Nc1nc2c(ncn2[C@@H]2O[C@H](COP(=O)(O)OP(=O)(O)OP(=O)(O)O)[C@@H](O)[C@H]2O)c(=O)[nH]1` [guanosine triphosphate], the NP40-soluble protein abundance (concentration: 0.1mM) is reported as 0.905 ± 0.036, the NP40-soluble protein abundance (concentration: 0.5mM) is reported as 0.922 ± 0.046 and the NP40-soluble protein abundance (concentration: 1mM) is reported as 0.938 ± 0.043. For the same compound, the NP40-soluble protein abundance (concentration: 2mM) was 0.871 ± 0.054, the NP40-soluble protein abundance (concentration: 4mM) was 0.854 ± 0.051 and the NP40-soluble protein abundance (concentration: 6mM) was 0.878 ± 0.07. The NP40-soluble protein abundance (concentration: 8mM) was 0.885 ± 0.05 and the NP40-soluble protein abundance (concentration: 10mM) was 0.875 ± 0.05.

— the supplement of paper PMC6411743
